# PubChem BioAssay AID1259308, NCATS, 2017
# Purpose: 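Candidate targets for better recombinant protein yield in mammalian cells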 (primary screen)
# Cell system: human HEK293 embryonic kidney cells stably expressing firefly luciferase (HEK-CMV-Luc2-Hygro)
# Knock-down reagent: single siRNA against human genes, 0.8 pmol siRNA per well
# Timing: 72 h
# Measurement: 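Luciferase light (ONE-Glo) measured on one replicate plate set and viability (CellTiter-Glo) on the other, scaled to a negative control siRNA, with robust z-scores and luciferase per cell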
# Reading the numbers: total luciferase, z-score and total luciferase, % of control: higher = more reporter protein produced; luciferase per cell, z-score: higher = more reporter output per viable cell; viable cells, % of control: higher = more viable cells
# Rule for the call: 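An siRNA counts as active if its total luciferase robust z-score exceeds 3; genes with two or more such siRNAs out of three were retested with fresh siRNAs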
# Calls: active = raised luciferase; inactive = no rise
# Shown is a random part of about 59,000 reagents. In the full data, about 1,510 (2.6%) got an active call. 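Calls use total luciferase alone and ignore viability, so some active siRNAs may act by altering cell number.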 Reagents against one gene are numbered here.
gene,reagent no.,"total luciferase, z-score","total luciferase, % of control","luciferase per cell, z-score","viable cells, % of control",call
ZNF780B,1,2.76,137,1.97,90.9,inactive
ZNF780B,2,-0.182,78.3,-0.311,94.9,inactive
ZNF780B,3,2.67,135,2.05,88,inactive
GBP3,1,-1.48,52.4,-0.853,73.4,inactive
GBP3,2,2.34,128,2.27,79,inactive
GBP3,3,0.677,95.3,0.146,103,inactive
PRX,1,-0.782,66.3,-1.03,97.1,inactive
PRX,2,-0.505,71.8,-0.0376,81.1,inactive
PRX,3,-0.326,75.4,-0.342,92.2,inactive
NPNT,1,-2.41,33.9,-2.32,69.8,inactive
NPNT,2,-0.288,76.2,-0.693,102,inactive
NPNT,3,1.64,115,1.54,85.3,inactive
FBXO41,1,-0.0102,81.7,-0.447,103,inactive
FBXO41,2,1.97,121,2.11,77.5,inactive
FBXO41,3,0.0842,83.6,-0.662,111,inactive
LOC646938,1,-0.215,77.6,0.109,84.3,inactive
LOC646938,2,1.37,109,1.8,75.9,inactive
LOC646938,3,1,102,0.884,90.2,inactive
DDX55,1,-0.794,66.1,-0.702,88.9,inactive
DDX55,2,0.563,93.1,0.509,91,inactive
DDX55,3,-0.412,73.7,-1.09,110,inactive
CPSF2,1,-0.0615,80.7,0.195,85.6,inactive
CPSF2,2,-2.32,35.7,-3.03,88.7,inactive
CPSF2,3,-2.37,34.8,-3.17,89.5,inactive
FKBP8,1,-0.331,75.3,-0.326,91.7,inactive
FKBP8,2,0.289,87.6,0.202,92.8,inactive
FKBP8,3,-0.8,66,-0.857,92.4,inactive
ZNF117,1,0.721,96.2,1.24,77.6,inactive
ZNF117,2,0.962,101,2.05,65.7,inactive
ZNF117,3,-0.141,79.1,-0.647,105,inactive
TLNRD1,1,-0.142,79.1,-0.3,95.6,inactive
TLNRD1,2,-1.64,49.2,-2.36,102,inactive
TLNRD1,3,0.494,91.7,0.224,96.6,inactive
ATP6V1C1,1,-0.119,79.5,0.495,78,inactive
ATP6V1C1,2,2.99,141,1.42,109,inactive
ATP6V1C1,3,0.352,88.9,-0.434,111,inactive
APMAP,1,-1.1,60,0.772,54.7,inactive
APMAP,2,0.154,85,-0.123,98.1,inactive
APMAP,3,2.04,122,1.58,90.2,inactive
APOB,1,-0.0362,81.2,0.177,86.6,inactive
APOB,2,-0.738,67.2,-0.278,80.8,inactive
APOB,3,-0.851,65,-1.49,108,inactive
LDLR,1,0.725,96.3,0.945,83.9,inactive
LDLR,2,-1.04,61.1,-1.03,89.5,inactive
LDLR,3,1.58,113,2.2,70.9,inactive
COPE,1,0.524,92.3,0.34,94.3,inactive
COPE,2,0.448,90.8,-0.357,111,inactive
COPE,3,1.5,112,1.31,88.3,inactive
KRT39,1,-0.691,68.1,-0.781,93.5,inactive
KRT39,2,0.526,92.3,0.1,100,inactive
KRT39,3,-0.498,72,-0.611,94.5,inactive
ZP4,1,1.87,119,1.05,101,inactive
ZP4,2,0.769,97.2,0.742,89.3,inactive
ZP4,3,0.578,93.4,1.39,72.4,inactive
BOLA3,1,-0.172,78.5,0.622,74.4,inactive
BOLA3,2,-0.28,76.3,-0.0537,86.5,inactive
BOLA3,3,-0.292,76.1,-0.629,100,inactive

5 entries already listed, ordered by “total luciferase, % of control”, descending:
gene,reagent no.,"total luciferase, z-score","total luciferase, % of control","luciferase per cell, z-score","viable cells, % of control",call
GBP3,2,2.34,128,2.27,79,inactive
GBP3,3,0.677,95.3,0.146,103,inactive
PRX,3,-0.326,75.4,-0.342,92.2,inactive
PRX,2,-0.505,71.8,-0.0376,81.1,inactive
PRX,1,-0.782,66.3,-1.03,97.1,inactive
